One assay deals with T1, GHRHR L34A (human) (UniProt Q02643).
T1 sequence: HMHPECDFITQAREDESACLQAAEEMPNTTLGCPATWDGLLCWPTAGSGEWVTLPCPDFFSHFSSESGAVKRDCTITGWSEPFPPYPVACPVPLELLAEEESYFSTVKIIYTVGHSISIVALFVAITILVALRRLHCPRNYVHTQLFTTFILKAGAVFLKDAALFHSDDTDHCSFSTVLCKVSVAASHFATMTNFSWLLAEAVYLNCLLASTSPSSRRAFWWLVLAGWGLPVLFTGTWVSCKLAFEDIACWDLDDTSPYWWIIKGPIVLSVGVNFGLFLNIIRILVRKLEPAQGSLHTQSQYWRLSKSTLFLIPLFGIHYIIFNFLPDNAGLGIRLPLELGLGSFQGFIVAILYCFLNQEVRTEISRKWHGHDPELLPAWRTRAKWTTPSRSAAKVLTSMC
Put plainly: FRET or BRET; β-arrestin 1/2 recruitment assay in live HEK293T cells co-transfected with receptor-Rluc8 and β-arrestin 1/2-Venus (1:9 mass ratio); coelenterazine h; started with 250 μM GHRH; AUC of the BRET time course (535 nm/470 nm) normalised to WT GHRHR = 100%.

Sequences of proteins named here, by UniProt entry; tags and fusion partners are left off.
UniProt P49407: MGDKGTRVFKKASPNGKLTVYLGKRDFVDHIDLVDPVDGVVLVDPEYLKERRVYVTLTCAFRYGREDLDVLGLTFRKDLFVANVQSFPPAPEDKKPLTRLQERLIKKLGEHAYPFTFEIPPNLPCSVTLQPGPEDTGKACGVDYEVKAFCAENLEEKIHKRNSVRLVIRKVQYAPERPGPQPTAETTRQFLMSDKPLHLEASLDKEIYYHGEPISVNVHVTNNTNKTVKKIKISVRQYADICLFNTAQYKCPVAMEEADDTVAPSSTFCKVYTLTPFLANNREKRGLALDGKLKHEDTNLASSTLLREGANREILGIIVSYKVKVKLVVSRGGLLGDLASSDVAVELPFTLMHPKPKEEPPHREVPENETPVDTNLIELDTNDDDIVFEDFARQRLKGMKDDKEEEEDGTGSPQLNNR

In a further assay the target is T2, GHRHR F82A (human) (UniProt Q02643).
T2 sequence: T1 sequence with A12L, F60A
The assay is described as above.

Here are results for 1 substance from PMC8501799, “Constitutive signal bias mediated by the human GHRHR splice variant 1” (Proceedings of the National Academy of Sciences of the …, 2021).

Numbering of substitutions follows the chain as printed. Results are given in words; binding and its absence hold for the method and conditions named. In cells and extracts the contact can be indirect. Some entries that bind do so weakly or less than the wild type.

On to “β-arrestin 1-Venus (from UniProt P49407 1-418)”, for which the binding entry with GHRHR L34A (human) and in the assay with GHRHR F82A (human) was “binds” throughout.
